The target in test [1] is Fused in sarcoma (FUS) (human (endogenous in U-2 OS)) (UniProt P35637). The experiment in a line: co-IP; same crosslinking chromatin IP of endogenous FUS with anti-FUS antibody, beads washed with LB3 and RIPA buffer, Western blot; unsynchronized cells or synchronized S-phase cells.
For test [2] the target is unchanged. In words: proximity ligation; in situ proximity ligation assay in cells, nuclear PLA foci counted with CellProfiler.
Test [3] has the same target. The experiment in a line: co-IP; same crosslinking chromatin IP of endogenous FUS with anti-FUS antibody, beads washed with LB3 and RIPA buffer, Western blot; unsynchronized cells or synchronized S-phase cells. This is another data set of the same source.

Protein sequences, listed by entry. Tags and fused reporters are not part of them. Lines headed by an entry give the natural chain unless they say otherwise; changes in a name come on top.
UniProt P35637: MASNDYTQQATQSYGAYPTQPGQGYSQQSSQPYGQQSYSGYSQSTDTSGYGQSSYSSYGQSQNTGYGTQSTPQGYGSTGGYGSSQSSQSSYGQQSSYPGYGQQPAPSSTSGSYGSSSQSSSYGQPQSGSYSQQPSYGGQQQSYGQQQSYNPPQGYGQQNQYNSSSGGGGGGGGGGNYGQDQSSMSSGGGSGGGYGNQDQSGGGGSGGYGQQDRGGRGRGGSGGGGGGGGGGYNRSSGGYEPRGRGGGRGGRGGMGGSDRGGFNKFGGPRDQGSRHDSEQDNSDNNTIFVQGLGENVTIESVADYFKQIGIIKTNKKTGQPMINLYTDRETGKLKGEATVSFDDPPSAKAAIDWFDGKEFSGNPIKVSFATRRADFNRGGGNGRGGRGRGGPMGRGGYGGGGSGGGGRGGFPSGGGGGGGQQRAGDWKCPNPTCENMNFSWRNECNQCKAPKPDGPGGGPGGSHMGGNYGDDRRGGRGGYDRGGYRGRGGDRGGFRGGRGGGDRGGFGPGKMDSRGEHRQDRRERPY
UniProt P28340: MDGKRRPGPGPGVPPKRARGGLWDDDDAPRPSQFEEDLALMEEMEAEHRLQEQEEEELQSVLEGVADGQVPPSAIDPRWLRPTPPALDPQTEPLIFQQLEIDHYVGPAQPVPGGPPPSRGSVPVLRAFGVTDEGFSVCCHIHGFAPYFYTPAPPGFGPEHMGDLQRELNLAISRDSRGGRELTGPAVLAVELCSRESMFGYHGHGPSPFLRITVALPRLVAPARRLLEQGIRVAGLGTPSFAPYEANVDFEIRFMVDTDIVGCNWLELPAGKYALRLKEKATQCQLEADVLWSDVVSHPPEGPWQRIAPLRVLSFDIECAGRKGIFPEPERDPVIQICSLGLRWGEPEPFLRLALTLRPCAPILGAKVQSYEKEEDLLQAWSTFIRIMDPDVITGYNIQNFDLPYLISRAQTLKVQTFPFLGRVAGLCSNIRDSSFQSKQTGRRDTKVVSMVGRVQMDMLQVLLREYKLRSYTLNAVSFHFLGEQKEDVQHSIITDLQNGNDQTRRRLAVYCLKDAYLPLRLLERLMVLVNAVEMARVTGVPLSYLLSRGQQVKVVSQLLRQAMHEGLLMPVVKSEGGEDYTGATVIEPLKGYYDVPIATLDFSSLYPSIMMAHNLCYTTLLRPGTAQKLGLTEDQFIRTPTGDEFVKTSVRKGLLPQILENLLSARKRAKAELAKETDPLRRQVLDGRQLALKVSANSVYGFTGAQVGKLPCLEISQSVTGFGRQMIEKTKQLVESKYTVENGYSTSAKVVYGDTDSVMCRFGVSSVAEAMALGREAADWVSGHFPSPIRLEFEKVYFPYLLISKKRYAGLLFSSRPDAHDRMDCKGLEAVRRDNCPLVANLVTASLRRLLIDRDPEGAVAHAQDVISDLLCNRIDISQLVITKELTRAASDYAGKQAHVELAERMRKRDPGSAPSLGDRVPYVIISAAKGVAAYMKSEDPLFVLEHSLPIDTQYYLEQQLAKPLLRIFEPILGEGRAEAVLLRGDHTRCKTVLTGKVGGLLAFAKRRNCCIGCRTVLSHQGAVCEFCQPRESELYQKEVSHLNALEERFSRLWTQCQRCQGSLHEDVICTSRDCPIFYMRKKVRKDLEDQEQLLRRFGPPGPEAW
UniProt P11387: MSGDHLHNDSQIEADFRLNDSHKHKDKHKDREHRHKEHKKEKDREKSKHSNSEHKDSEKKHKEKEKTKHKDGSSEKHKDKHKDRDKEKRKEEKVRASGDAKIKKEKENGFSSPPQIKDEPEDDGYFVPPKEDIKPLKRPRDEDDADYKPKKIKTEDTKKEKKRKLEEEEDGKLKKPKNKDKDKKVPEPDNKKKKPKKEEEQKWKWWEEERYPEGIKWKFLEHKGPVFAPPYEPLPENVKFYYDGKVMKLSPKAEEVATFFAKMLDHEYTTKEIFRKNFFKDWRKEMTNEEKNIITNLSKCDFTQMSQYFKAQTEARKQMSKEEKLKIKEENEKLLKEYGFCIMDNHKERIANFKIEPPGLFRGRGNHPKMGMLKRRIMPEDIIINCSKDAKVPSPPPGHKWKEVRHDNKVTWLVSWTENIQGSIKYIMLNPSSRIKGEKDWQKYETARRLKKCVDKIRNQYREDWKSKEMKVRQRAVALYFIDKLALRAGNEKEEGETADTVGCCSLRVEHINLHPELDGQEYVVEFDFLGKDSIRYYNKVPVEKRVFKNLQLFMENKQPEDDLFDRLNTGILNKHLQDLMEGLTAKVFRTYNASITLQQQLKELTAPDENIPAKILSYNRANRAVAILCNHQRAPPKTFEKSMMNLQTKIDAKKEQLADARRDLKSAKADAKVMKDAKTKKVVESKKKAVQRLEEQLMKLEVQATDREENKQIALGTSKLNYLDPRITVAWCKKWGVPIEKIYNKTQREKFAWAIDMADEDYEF
UniProt P12004: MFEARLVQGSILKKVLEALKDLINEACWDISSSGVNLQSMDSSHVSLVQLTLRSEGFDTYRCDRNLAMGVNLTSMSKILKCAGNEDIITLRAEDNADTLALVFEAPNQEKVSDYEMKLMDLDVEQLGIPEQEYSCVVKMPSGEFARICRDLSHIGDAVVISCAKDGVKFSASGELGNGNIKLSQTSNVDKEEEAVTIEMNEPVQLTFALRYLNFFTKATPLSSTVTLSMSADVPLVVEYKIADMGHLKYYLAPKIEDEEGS

Binding data for 4 molecules are collected here from publication PMC8403768.

These are yes or no findings as the source states them, for the method shown. In cells and extracts the contact can be indirect. Some results given as binding are weak or reduced against the parent protein; the word gives no strength.

As to “DNA polymerase δ (POLδ or POLD1) (from UniProt P28340 1-1107)”, the binding entry in test [1] and in test [2] was “binds” throughout.
On to TOP1 (from UniProt P11387 1-765), for which the binding entry in test [1] is given as “binds”.
In the case of “proliferating cell nuclear antigen (PCNA) (from UniProt P12004 1-261)”, the binding entry in test [1] and in test [2] was “binds” each time.

B1: UHRF1 (protein, UniProt Q96T88 1-793)
chain: MWIQVRTMDGRQTHTVDSLSRLTKVEELRRKIQELFHVEPGLQRLFYRGKQMEDGHTLFDYEVRLNDTIQLLVRQSLVLPHSTKERDSELSDTDSGCCLGQSESDKSSTHGEAAAETDSRPADEDMWDETELGLYKVNEYVDARDTNMGAWFEAQVVRVTRKAPSRDEPCSSTSRPALEEDVIYHVKYDDYPENGVVQMNSRDVRARARTIIKWQDLEVGQVVMLNYNPDNPKERGFWYDAEISRKRETRTARELYANVVLGDDSLNDCRIIFVDEVFKIERPGEGSPMVDNPMRRKSGPSCKHCKDDVNRLCRVCACHLCGGRQDPDKQLMCDECDMAFHIYCLDPPLSSVPSEDEWYCPECRNDASEVVLAGERLRESKKKAKMASATSSSQRDWGKGMACVGRTKECTIVPSNHYGPIPGIPVGTMWRFRVQVSESGVHRPHVAGIHGRSNDGAYSLVLAGGYEDDVDHGNFFTYTGSGGRDLSGNKRTAEQSCDQKLTNTNRALALNCFAPINDQEGAEAKDWRSGKPVRVVRNVKGGKNSKYAPAEGNRYDGIYKVVKYWPEKGKSGFLVWRYLLRRDDDEPGPWTKEGKDRIKKLGLTMQYPEGYLEALANREREKENSKREEEEQQEGGFASPRTGKGKWKRKSAGGGPSRAGSPRRTSKKTKVEPYSLTAQQSSLIREDKSNAKLWNEVLASLKDRPASGSPFQLFLSKVEETFQCICCQELVFRPITTVCQHNVCKDCLDRSFRAQVFSCPACRYDLGRSYAMQVNQPLQTVLNQLFPGYGNGR
Take B1: the binding entry in test [3] is given as “binds”.
